Results published in article PMC7852560 (Neuropsychopharmacology, 2020).
Results are given in words; binding and its absence hold for the method and conditions named. In cells and extracts the contact can be indirect. Some results given as binding are weak or reduced against the parent protein; the word gives no strength.

Sequences of proteins named here, by UniProt entry; tags and fusion partners are left off.
UniProt P21554: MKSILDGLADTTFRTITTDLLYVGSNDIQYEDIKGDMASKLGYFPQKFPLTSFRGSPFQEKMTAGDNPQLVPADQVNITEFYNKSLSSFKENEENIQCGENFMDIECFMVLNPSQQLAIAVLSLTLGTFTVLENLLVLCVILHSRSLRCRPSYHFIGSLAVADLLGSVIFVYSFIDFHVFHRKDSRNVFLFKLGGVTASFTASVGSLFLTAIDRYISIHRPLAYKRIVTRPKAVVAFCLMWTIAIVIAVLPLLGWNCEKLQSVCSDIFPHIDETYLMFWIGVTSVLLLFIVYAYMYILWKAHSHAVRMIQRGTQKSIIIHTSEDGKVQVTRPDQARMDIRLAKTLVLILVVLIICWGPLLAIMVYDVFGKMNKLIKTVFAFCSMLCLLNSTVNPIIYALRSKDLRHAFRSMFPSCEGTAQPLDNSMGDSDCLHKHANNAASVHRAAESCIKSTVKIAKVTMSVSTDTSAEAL
UniProt P32121: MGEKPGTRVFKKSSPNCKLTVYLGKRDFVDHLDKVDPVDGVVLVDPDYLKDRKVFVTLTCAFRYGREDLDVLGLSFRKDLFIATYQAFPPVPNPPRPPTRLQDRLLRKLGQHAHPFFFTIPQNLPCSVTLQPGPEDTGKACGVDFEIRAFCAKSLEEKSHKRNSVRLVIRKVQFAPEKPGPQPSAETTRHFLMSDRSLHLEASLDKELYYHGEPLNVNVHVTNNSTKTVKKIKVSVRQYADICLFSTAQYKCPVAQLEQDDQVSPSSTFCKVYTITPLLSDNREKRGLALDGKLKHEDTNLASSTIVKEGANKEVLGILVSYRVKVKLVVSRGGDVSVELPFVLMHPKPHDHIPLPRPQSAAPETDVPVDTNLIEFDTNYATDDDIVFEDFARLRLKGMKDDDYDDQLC

Target: cannabinoid CB1 receptor (UniProt P21554)
Test: split reporter; PathHunter β-arrestin CB1R assay (enzyme fragment complementation) in cells, run by Eurofins Pharma Discovery Services; recruitment stimulated by the agonist CP55,940; ABM300 added at the EC80 of CP55,940 (10 nM) reduced it

β-arrestin2 (from UniProt P32121 1-409)
binding: binds
